Earlier results as cited in patent US8173632B2, “Process for the modification of the solid state of a compound and co-amorphous compositions produced with same” (priority 2007, dated 2012).

Conditions: in vivo; cited from earlier work

For `CC(C)c1c(C(=O)Nc2ccccc2)c(-c2ccccc2)c(-c2ccc(F)cc2)n1CC[C@@H](O)C[C@@H](O)CC(=O)O` [atorvastatin], the absorption is given as 30%.
